The nature of this test: qHTS Assay for Lipid Storage Modulators in Drosophila S3 Cells.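 As to cell number change: cells counted by Cell Tracker Red CMTPX staining in the red channel.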 The note with it: BODIPY lipid droplet fluorescence, 18-24 h; for cell number change: measured here: cell count max response, cells fed with added oleic acid. The procedure, abridged: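 Drosophila S3 cells got compounds at several concentrations plus oleic acid (400 uM solution). Laser-scanning cytometry with 488 nm excitation read lipid droplets at 500-530 nm and cells at 575-640 nm. Percent activity was relative to 20 uM Triacsin C.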

Where [1] appears, read: measured here: cell number channel AC50, cells fed with added oleic acid.
The mark [2] stands for this setting: measured here: lipid fluorescence (Fed channel) AC50, cells fed with added oleic acid.

What is called AC50 is the midpoint of the concentration-response curve, whichever way the signal moves. A higher AC50 goes with activity only at high concentration.

The other results are listed elsewhere or left out. These are further read-outs of the screen, such as a control signal, another cell line or another target. No call is given for them. The list favours compounds with an active or inconclusive main result. Words in brackets tell the shape of the fitted curve; partial curves, single points and poor fits give uncertain potencies.

Consider `O=C(CNC(=O)c1cncc(Br)c1)Nc1ccc(F)c(F)c1F`, for which the cell number change was 30.8%. The AC50 under setting [1] is 1160 nM [rising, partial curve, poor fit]. As to `CCOC(=O)Cc1csc(NC(=O)CSc2nc3sc(C(=O)O)c(C)c3c(=O)[nH]2)n1`, the cell number change was -9.82%. Moreover, the AC50 under setting [1] is 731 nM [falling, single point]. Further, the AC50 under setting [2] was 651 nM [falling, full curve]. For the compound `O=C(Cc1ncn[nH]1)NCCc1ccccc1`, the cell number change was found to be 8.31%. Moreover, the AC50 under setting [1] is 1300 nM [falling, single point]. Moreover, under setting [2], the AC50 is 6510 nM [rising, partial curve, poor fit]. Consider `O=c1cc(CSc2nnnn2-c2ccccc2)nc2sccn12`, for which the cell number change was 24.8%. The AC50 under setting [2] is 9200 nM [rising, partial curve]. Take `CCN1C(=O)[C@@H]2Cc3c([nH]c4ccccc34)C(c3ccc(OC)cc3)N2C1=S` (stereo partly drawn): the cell number change was -16.2%. For the same compound, the AC50 under setting [2] is 6510 nM [rising, single point]. As to `Cc1ccc(C2NS(=O)(=O)N=C2N)cc1` (stereo not drawn), the cell number change was -49.6%. The AC50 under setting [1] was 164 nM [falling, full curve]. The AC50 under setting [2] is 146 nM [falling, full curve]. As for `CCCC1CCC(C(=O)n2nc(N)c3cc4ccc(OC)cc4nc32)CC1` (stereo not drawn), the cell number change amounted to 10.3%. Further, under setting [2], the half-maximal activity concentration (AC50) is 820 nM [rising, full curve]. With `CCc1cc2c(C)ccc(C)c2nc1SCC(=O)Nc1cc(C)on1`, the cell number change is -11.8%.

On to `Cc1cc(C)c2c(=O)n(CC(=O)Nc3cccc(Cl)c3C)sc2n1`, for which the cell number change was -57.5%. Moreover, the AC50 under setting [1] is 16400 nM [falling, single point]. Consider `O=C(CSc1ncn(-c2ccccc2)n1)c1cccs1`, for which, under setting [2], the AC50 is 820 nM [rising, single point]. For the compound `O=C(Nc1nc(-c2ccc3c(c2)Cc2ccccc2-3)cs1)c1ccccc1`, the cell number change is -39.7%. In addition, the AC50 under setting [1] is 13000 nM [falling, partial curve, poor fit]. Consider `Cc1cc(C)nc(Nc2nc3ccccc3[nH]2)n1`, for which the cell number change was found to be 54.4%. For the same compound, the AC50 under setting [1] was 164 nM [rising, full curve, poor fit]. Also, under setting [2], the AC50 is 130 nM [rising, full curve, poor fit].

`COc1ccc(C(=O)NC(=S)Nc2cccc(NC(=O)c3ccco3)c2)cc1[N+](=O)[O-]`: the cell number change was -11.2%. For the compound `CC(C)Cn1c(C(C)C)nc([N+](=O)[O-])c1S(=O)(=O)c1ccc(F)cc1`, the cell number change is -9.51%. Also, under setting [2], the AC50 is 6510 nM [falling, partial curve]. As to `CN(c1ccc([N+](=O)[O-])cc1/C=N/NC(=O)COc1ccccc1)C1CCCCC1`, the cell number change amounted to 24.4%. Under setting [2], the AC50 was 2590 nM [rising, full curve]. In the case of `COc1ccc(S(=O)(=O)N2CCCC2)cc1C(C)C`, the cell number change was -15.6%. On to `O=[N+]([O-])c1ccc(S(=O)(=O)CC2CSc3nc4ccccc4n32)cc1` (stereo not drawn), for which the concentration at half-maximal activity (AC50) under setting [2] is 20600 nM [falling, partial curve].

Source of the values: PubChem BioAssay AID2685 (National Center for Advancing Translational Sciences (NCATS), 2010).
